Laboratory results reported in publication PMC10905880.

B1: OsRBR1-cYFP (protein, UniProt Q84QM3 1-1010)
chain: MEGAAPPASSGSEVTGAGSGKVDAGGGAAMEERFADLCKSKLGLDESITRQAMQLFKESKSILLSSMSSLGSGSPEEIERFWSAFVLYCVSRLGKAGKGKEDGGISLCQILRAFSLNIVDFFKEMPQFCIKVGSVLAGLYGSDWEKRLELKELQANVVHLSLLSRYYKRAYQELFLLNDAKPPENSAEPNAQASDYYRFGWLLFLVLRIQTFSRFKDLVTSTNGLVSVLAVLIVHIPVRLRNFNIKESSSFAKKSDKGVNLIASLCEKYHTSEDELSKAIEKTNTLIVDILKKKPCPAASECQQDRLSFIDPEGLTYFKNLLEEDSLKLSLLMLEKEYENAINTKGELDERMFANDEDSLLGSGSLSGGAINLPGTKRKYDVMASPAKSITSPSPMSPPRFCASPTGNGYCSSKMAPITPVSTAMTTAKWLRSTISPLPSKPSGELLRFFSACDKDVTDDITRRAGIILGAIFTSSSFGERICTSVRSTNRIDAIWTEQRKMEALKLYYRVLESMCRAETQILSGNNLTSLLSNERFHRCMIACSAELVLATHKTVTMMFPAVLEKTGITAFDLSKVIESFVRHEDTLPRELKRHLNSLEERLLESMAWEKGSSMYNSLIVARPTLSAEINRLGLLAEPMPSLDAIAAHHNISLEGLPPLPFQKQEHSPDKDEVRSPKRACTERRNVLVDNNSFRSPVKDTLKSKLPPLQSAFLSPTRPNPAAGGELCAETGIGVFLSKIAKLAAIRIRGLCERLQLSQQVLERVYSLVQQIIIQQTALFFNRHIDQIILCSIYGVAKISQLALTFKEIIFGYRKQSQCKPQVFRSVYVHWASRSRNGKTGEDHVDIITFYNEVFIPTVKPLLVELGSGTSPNKKNEEKCAADGPYPESPRLSRFPNLPDMSPKKVSAAHNVYVSPLRTSKMDTLLSPSSKSYYACVGESTHAFQSPSKDLKVINNRLNSGKKVSGRLNFDVVSDLVVARSLSDQNSASAAATTADIATKTPVKLEQPDC
B2: OsRBR2-cYFP (protein, UniProt Q2R374 1-978)
chain: MASQPPAAVEARLADLCKELGVDEGVAGEAAAVLEEGKGALLASPSFGSKSPEDAEKLCFAFVLYCVSKLKETKAGSSGVRLWEILKGCKLKYDDFFKESQRLASRIDQVLGSRYGSDWEARLELKQLENLVNLLADASRFYCKAFNELFLSPSTDQEPGSTTNIPDYIRFGWLLFLILRSKSPELFKDLVSCIHGLVAILAILLIHVPAKFRSFTIEGSSHLIKQTEKGVDLLPSLCHNYHTSEDRLKEMMGKSYKVIEVFFSRKAINASEFKTVNLDKIDTDGLMYFKDLVDDEIFQSNLEKLEKLSSTTGCQGELDLEMFLTSNDYVLNAENSSGSSANFGCSKRVFETLASPTKTIKNMLAAPSSPSSPANGGSIKIVQMTPVTSAMTTAKWLRDVISSLPDKPSSKLEEFLSSCDTDLTSDVVKRVSIILEAIFPTKSIDRGTSIGLNCANAFDIPWAEARKMEASKLYYRVLEAICRAESQNNNVNNLTPLLSNERFHRCLIACSAELVLATHKTVIMMFPAVLESTGLTAFDLSKIIENFVRHEETLPRELKRHLNSLEEQLLESMSWEKGSSLYNSLVVARPSLSTEINSLGLLAEPMPSLDGIVARQSIHPDGLPPTPSKRWPSAGPDGNCYPQSPKRLCTESRNSLVERNSQTPPPKQSQTGLSILKAKYHPLQATFASPTVSNPVSGNEKCAVVGVQIFFSKILKLAAIRIRNLCERLRHEELTVSVYNIFKQILDQQTALFFNRHVDQIILCCLYGVAKVSQLSLTFKEIVNNYKREPQCKPEVFRSIFVGSTNRNGGFGSRHVDIIVFYNQVFVPTVKPLLVALMPSSTRPEDKRNTNSQIPGSPKSSPFSNLPDMSPKKVSSSHNVYVSPLRQTKMDALLSPSSRSFYACIGESTQAFQSPSKDLAAINSRLNYPTRRINTRINFDMVSDSVVAGSLGQPNGGSASSDPAAAFSPLSKKSKTDS

Columns and labels:
Assay in all cases: split reporter; BiFC: OsCYCD-nYFP with OsRBR-cYFP or OsCDKA-cYFP co-expressed in Nicotiana benthamiana pavement cells by Agrobacterium infiltration; confocal microscopy after 48 and 72 h; Histone H1.2-RFP as nuclear marker
[1] = target: OsCYCD3;2-nYFP (rice (Oryza sativa L. spp. japonica, Nipponbare))
[2] = target: OsCYCD7;1-nYFP (rice (Oryza sativa L. spp. japonica, Nipponbare))
[3] = target: OsCYCD5;1-nYFP (rice (Oryza sativa L. spp. japonica, Nipponbare))
[4] = target: OsCYCD4;1-nYFP (rice (Oryza sativa L. spp. japonica, Nipponbare))
[5] = target: OsCYCD2;1-nYFP (rice (Oryza sativa L. spp. japonica, Nipponbare))
[6] = target: OsCYCD2;3-nYFP (rice (Oryza sativa L. spp. japonica, Nipponbare))
[7] = target: OsCYCD4;2-nYFP (rice (Oryza sativa L. spp. japonica, Nipponbare))
[8] = target: OsCYCD3;1-nYFP (rice (Oryza sativa L. spp. japonica, Nipponbare))
[9] = target: OsCYCD5;2-nYFP (rice (Oryza sativa L. spp. japonica, Nipponbare))
[10] = target: OsCYCD6;1-nYFP (rice (Oryza sativa L. spp. japonica, Nipponbare))
[11] = target: OsCYCD5;3-nYFP (rice (Oryza sativa L. spp. japonica, Nipponbare))
[12] = target: OsCYCD1;2-nYFP (rice (Oryza sativa L. spp. japonica, Nipponbare))
[13] = target: OsCYCD1;1-nYFP (rice (Oryza sativa L. spp. japonica, Nipponbare))
[14] = target: OsCYCD2;2-nYFP (rice (Oryza sativa L. spp. japonica, Nipponbare))

| Binder | binding [1] | binding [2] | binding [3] | binding [4] | binding [5] | binding [6] | binding [7] | binding [8] | binding [9] | binding [10] | binding [11] | binding [12] | binding [13] | binding [14] |
| --- | --- | --- | --- | --- | --- | --- | --- | --- | --- | --- | --- | --- | --- | --- |
| B1 | binds | no binding | binds | no binding | no binding | no binding | no binding | no binding | binds | no binding | binds | binds | binds | binds |
| B2 | binds | no binding | binds | binds | binds | binds | no binding | binds | binds | no binding | binds | binds | binds | no binding |

Results are given in words; binding and its absence hold for the method and conditions named. Binding seen in cells or lysates may run through a third protein. For some of these results: Binding can be weak; no strength is given. Sequences can lack the tags named with a protein.
